This passage reports Stoke shift results from article PMC8706149 (International Journal of Molecular Sciences, 2021).

The nature of the series: Steady-state fluorescence in buffer and water/organic solvent mixtures. Conditions: fluorophore. Type of series: physicochemical.

For the compound `Nc1ccc2nc(C3=N[C@@H](C(=O)O)CS3)sc2c1` [amino-Luciferin, aminoluciferin, reference compound], the Stoke shift is on record as about 145 nm.

For `O=C(O)[C@H]1CSC(c2nc3ccc(O)cc3s2)=N1` [Free Luc, luciferin], the Stoke shift entry is “about 210 nm”.
